System: IGROV-1 (Ovarian Carcinoma)
Assay: combination Emax (second highest fraction inhibited in the dose matrix, 72 h); higher = more inhibition; extreme values may be limits of the assay
Procedure, shortened: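 Bliss excess equals the observed combination effect minus the expected value EA + EB − EA·EB, where EA and EB are the effects of each agent alone. Combination Emax is the second-highest inhibition within the matrix. Inhibition was scaled from CellTiter-Glo 2.0 luminescence, with 0 set by vehicle wells and 1 by blank wells, after 72 hours of two-drug dosing of cells plated in 1536-well plates.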

COc1cc2ncnc(Nc3ccc(F)c(Cl)c3)c2cc1OCCCN1CCOCC1 [Gefitinib] + CC(C)n1c(=O)n(C)c2cnc3cc(F)c(-c4ccc(OCCCN5CCCCC5)nc4)cc3c21 [AZD1390] (first compound max 10 µM, 7x7, partner max 0.3 µM)
combination Emax: 0.618

Reference: the supplement of paper PMC11061612
